Test results published in US8148510B2, “Antifungal polypeptides” (Pioneer Hi-Bred International, Inc., priority 2004, dated 2012).

Assay: accumulation in T0 generation transgenic maize plants, western blot
Details: T0 PHP22300 maize plants

With “LBNL-5220: antifungal polypeptide (55 amino acids, mature mass 6174 Da) isolated from Penicillium simplicissimum fermentation broth (LKYTGTCTRANNQCKYKGQNDRDTFVKCPTFANKKCTRDGAPCSFDSYSRAVTCD)” the “accumulation of LBNL-5220 in upper stalk tissue” value (about 10 days after pollination) was “greater than 20 μg of LBNL-5220/g DW” and the “accumulation of LBNL-5220 in leaf tissue” value (~V7 stage) was “approximately 2 μg of LBNL-5220/g FW”.
